Results reported in PubChem BioAssay AID248 (DTP/NCI, 2004).
The list does not hold the whole screen: its compounds were picked by chemical class. Other doses and runs of a compound may be missing. T/C is the treated group as % of the vehicle group. Some entries give survivors of the animals treated and no T/C: the source holds a T/C of zero for them, seemingly a mark for toxic or unscored doses. Some survivor counts are full or nearly so, which does not show that the dose was tolerated: the source hardly ever lists a survival T/C far under the control, and the zero likely stands for such cases as well. Counts of survivors are from the toxicity check (mostly the fifth day) where no day follows; animals may have died later. Schedule codes are those of the source, read here as Q, the interval in days (D) or hours (H), X, the number of doses. Some schedule codes hold Z or #, which are not explained here. Where survival is the endpoint, this PubChem deposit counts one and a half times the control or more as active, and values a quarter to a half above the control carry no call in these data; other NCI protocols may use other cut-offs. Some entries hold several experiments; their values stand side by side, smallest first. Some T/C values are marked as having no survivor count here; that says nothing about deaths at the dose. Some T/C values carry the count of animals alive at the toxicity check (mostly the fifth day); without a count or a note in brackets, all were alive then.

Tested on: L1210 leukemia ip in BDF1 mice, survival T/C
Assay: NCI In Vivo Anticancer Drug Screen. Data for tumor model L1210 Leukemia (intraperitoneal) in B6D2F1 (BDF1) mice
Conditions: T/C endpoint: mean survival time, higher T/C = longer survival
[1] = dose: 100.0 mg/kg/injection, schedule: Q01DX009 (ip), vehicle: saline with Tween-80
[2] = dose: 100.0 mg/kg/injection, schedule: Q04DX003 (ip), vehicle: saline with Tween-80
[3] = dose: 200.0 mg/kg/injection, schedule: Q04DX003 (ip), vehicle: saline with Tween-80
[4] = dose: 400.0 mg/kg/injection, schedule: Q04DX003 (ip), vehicle: saline with Tween-80
[5] = dose: 100.0 mg/kg/injection, schedule: Q04DX003 (ip), vehicle: saline
[6] = dose: 200.0 mg/kg/injection, schedule: Q01DX001 (ip), vehicle: carboxymethylcellulose (CMC)
[7] = dose: 300.0 mg/kg/injection, schedule: Q01DX001 (ip), vehicle: carboxymethylcellulose (CMC)
[8] = dose: 50.0 mg/kg/injection, schedule: Q01DX001 (ip), vehicle: saline
[9] = dose: 100.0 mg/kg/injection, schedule: Q01DX001 (ip), vehicle: saline
[10] = dose: 200.0 mg/kg/injection, schedule: Q01DX001 (ip), vehicle: saline
[11] = dose: 400.0 mg/kg/injection, schedule: Q01DX001 (ip), vehicle: saline

CC(C)SC(OC(=O)COc1ccccc1Cl)C(Cl)(Cl)Cl (stereo not drawn)
T/C (dose: 25.0 mg/kg/injection, schedule: Q01DX009 (ip), vehicle: saline with Tween-80): 103 % of control
T/C (dose: 50.0 mg/kg/injection, schedule: Q01DX009 (ip), vehicle: saline with Tween-80): 97 % of control
T/C [1]: 103 % of control
survivor count [1]: 6 of 6
T/C [2]: 100 % of control
T/C (dose: 200.0 mg/kg/injection, schedule: Q01DX009 (ip), vehicle: saline with Tween-80): 95 % of control
T/C [3]: 93 % of control
T/C (dose: 400.0 mg/kg/injection, schedule: Q01DX009 (ip), vehicle: saline with Tween-80): 98 % of control
T/C [4]: 92 % of control

CC1CN1P(=O)(Nc1ccccn1)N1CC1C (stereo not drawn)
T/C (dose: 29.0 mg/kg/injection, schedule: Q01DX009 (ip), vehicle: carboxymethylcellulose (CMC)): 122 % of control
T/C (dose: 44.0 mg/kg/injection, schedule: Q01DX009 (ip), vehicle: carboxymethylcellulose (CMC)): 134 % of control
T/C (dose: 66.0 mg/kg/injection, schedule: Q01DX009 (ip), vehicle: carboxymethylcellulose (CMC)): 135 % of control
T/C (dose: 66.0 mg/kg/injection, schedule: Q04DX003 (ip), vehicle: saline): 120 and 127 % of control
T/C (dose: 89.0 mg/kg/injection, schedule: Q01DX001 (ip), vehicle: carboxymethylcellulose (CMC)): 120 and 130 % of control
T/C (dose: 100.0 mg/kg/injection, schedule: Q01DX001 (ip), vehicle: carboxymethylcellulose (CMC)): 126 % of control
T/C (dose: 100.0 mg/kg/injection, schedule: Q01DX009 (ip), vehicle: carboxymethylcellulose (CMC)): 101 % of control
T/C [2]: 159 % of control
T/C [5]: 129 and 140 % of control
T/C (dose: 133.0 mg/kg/injection, schedule: Q01DX001 (ip), vehicle: carboxymethylcellulose (CMC)): 125 and 142 % of control
T/C (dose: 150.0 mg/kg/injection, schedule: Q04DX003 (ip), vehicle: saline): 137 and 142 % of control
T/C [6]: 97 [4 of 6 alive] and 134 % of control [3 of 4 alive]
survivor count [6]: 6 of 6
T/C [3]: 134 % of control
T/C [7]: 124 % of control [5 of 6 alive]
survivor count [7]: 1 of 6
survivor count (dose: 400.0 mg/kg/injection, schedule: Q01DX001 (ip), vehicle: carboxymethylcellulose (CMC)): 2 of 4
survivor count [4]: 5 of 6

Cc1ccc(C(C)(C)O)c(CN(C)C)c1C
T/C [8]: 97 % of control
T/C [9]: 101 % of control
T/C [10]: 93 % of control
T/C [11]: 101 % of control [4 of 6 alive]

O=P1(N(CCCl)C(CCl)CCl)NCCCO1 (stereo not drawn)
T/C (dose: 12.5 mg/kg/injection, schedule: Q01DX Z (ip), vehicle: other): 94 % of control
T/C (dose: 25.0 mg/kg/injection, schedule: Q01DX Z (ip), vehicle: other): 103 % of control
T/C (dose: 50.0 mg/kg/injection, schedule: Q01DX Z (ip), vehicle: other): 92 % of control
T/C (dose: 100.0 mg/kg/injection, schedule: Q01DX Z (ip), vehicle: other): 117 % of control

ClCC[N+]1(CCCl)CCCO1
T/C (dose: 0.44 mg/kg/injection, schedule: Q01DX Z (ip), vehicle: methylcellulose (MC)): 103 % of control
T/C (dose: 0.98 mg/kg/injection, schedule: Q01DX Z (ip), vehicle: methylcellulose (MC)): 109 % of control
T/C (dose: 1.4 mg/kg/injection, schedule: Q01DX Z (ip), vehicle: methylcellulose (MC)): 106 % of control
T/C (dose: 2.2 mg/kg/injection, schedule: Q01DX Z (ip), vehicle: methylcellulose (MC)): 117 % of control
T/C (dose: 3.3 mg/kg/injection, schedule: Q01DX Z (ip), vehicle: methylcellulose (MC)): 108 % of control
T/C (dose: 5.0 mg/kg/injection, schedule: Q01DX Z (ip), vehicle: methylcellulose (MC)): 99 and 117 % of control
T/C (dose: 5.32 mg/kg/injection, schedule: Q01DX Z (ip), vehicle: saline): 123 % of control
T/C (dose: 7.5 mg/kg/injection, schedule: Q01DX Z (ip), vehicle: methylcellulose (MC)): 99 % of control
T/C (dose: 8.0 mg/kg/injection, schedule: Q01DX Z (ip), vehicle: saline): 120 % of control
T/C (dose: 11.0 mg/kg/injection, schedule: Q01DX Z (ip), vehicle: methylcellulose (MC)): 99 % of control
T/C (dose: 12.0 mg/kg/injection, schedule: Q01DX Z (ip), vehicle: saline): 106 % of control
T/C (dose: 12.5 mg/kg/injection, schedule: Q01DX001 (ip), vehicle: saline): 114 % of control
T/C (dose: 16.5 mg/kg/injection, schedule: Q01DX Z (ip), vehicle: methylcellulose (MC)): 105 % of control
T/C (dose: 18.0 mg/kg/injection, schedule: Q01DX Z (ip), vehicle: saline): 87 % of control
T/C (dose: 25.0 mg/kg/injection, schedule: Q01DX001 (ip), vehicle: saline, evaluated on day 30): 107 % of control
T/C (dose: 25.0 mg/kg/injection, schedule: Q01DX001 (ip), vehicle: saline, run until all animals had died): 101 % of control
T/C [8]: 118 % of control
T/C (dose: 50.0 mg/kg/injection, schedule: Q04DX003 (ip), vehicle: saline): 130 % of control
T/C [9]: 126 % of control
T/C [5]: 93 % of control
T/C [10]: 105 % of control

Nc1c([N+](=O)[O-])cc([N+](=O)[O-])cc1[N+](=O)[O-]
T/C (dose: 100.0 mg/kg/injection, schedule: Q01DX009 (ip), vehicle: Klucel (hydroxypropylcellulose) (HPC)): 92 % of control [survivor count not shown]
T/C (dose: 100.0 mg/kg/injection, schedule: Q04DX003 (ip), vehicle: Klucel (hydroxypropylcellulose) (HPC)): 101 % of control [survivor count not shown]
T/C (dose: 200.0 mg/kg/injection, schedule: Q01DX009 (ip), vehicle: Klucel (hydroxypropylcellulose) (HPC)): 93 % of control [survivor count not shown]
T/C (dose: 200.0 mg/kg/injection, schedule: Q04DX003 (ip), vehicle: Klucel (hydroxypropylcellulose) (HPC)): 98 % of control [survivor count not shown]
T/C (dose: 400.0 mg/kg/injection, schedule: Q01DX009 (ip), vehicle: Klucel (hydroxypropylcellulose) (HPC)): 94 % of control [survivor count not shown]
T/C (dose: 400.0 mg/kg/injection, schedule: Q04DX003 (ip), vehicle: Klucel (hydroxypropylcellulose) (HPC)): 98 % of control [survivor count not shown]

COP(=O)(Cl)N(CCCl)CCCl (stereo not drawn)
T/C (dose: 75.0 mg/kg/injection, schedule: Q01DX001 (ip), vehicle: DMSO): 110 % of control [5 of 6 alive]
T/C (dose: 150.0 mg/kg/injection, schedule: Q01DX001 (ip), vehicle: DMSO): 87 % of control [5 of 6 alive]
T/C (dose: 300.0 mg/kg/injection, schedule: Q01DX001 (ip), vehicle: DMSO): 103 % of control [4 of 6 alive]

NP(N)(=O)N(CCCl)CCCl
T/C (dose: 10.0 mg/kg/injection, schedule: Q01DX Z (ip), vehicle: saline): 90 % of control
T/C (dose: 30.0 mg/kg/injection, schedule: Q01DX Z (ip), vehicle: saline): 96 % of control
T/C (dose: 100.0 mg/kg/injection, schedule: Q01DX Z (ip), vehicle: saline): 104 % of control
T/C (dose: 300.0 mg/kg/injection, schedule: Q01DX Z (ip), vehicle: saline): 101 % of control
survivor count (dose: 1000.0 mg/kg/injection, schedule: Q01DX Z (ip), vehicle: saline): 4 of 6
T/C (dose: 2000.0 mg/kg/injection, schedule: Q01DX Z (ip), vehicle: saline): 96 % of control

O=C(OCCOC(=O)c1cc([N+](=O)[O-])cc([N+](=O)[O-])c1)c1cc([N+](=O)[O-])cc([N+](=O)[O-])c1
T/C [9]: 92 % of control
T/C [10]: 87 % of control
T/C [11]: 92 % of control

O=C(COc1ccc(Cl)cc1)OC1CN2CCC1CC2 (stereo not drawn)
survivor count (dose: 25.6 mg/kg/injection, schedule: Q04DX002 (ip), vehicle: saline with Tween-80): 3 of 3
T/C (dose: 64.0 mg/kg/injection, schedule: Q04DX002 (ip), vehicle: saline with Tween-80): 105 % of control
T/C (dose: 160.0 mg/kg/injection, schedule: Q04DX002 (ip), vehicle: saline with Tween-80): 98 % of control
survivor count (dose: 400.0 mg/kg/injection, schedule: Q04DX002 (ip), vehicle: saline with Tween-80): 3 of 3
